In paper PMC5175153:
No constants are given. Whether binding was seen depends on the method and setting. In cells and extracts the contact can be indirect.

Sequences of proteins named here, by UniProt entry; tags and fusion partners are left off.
UniProt O14867: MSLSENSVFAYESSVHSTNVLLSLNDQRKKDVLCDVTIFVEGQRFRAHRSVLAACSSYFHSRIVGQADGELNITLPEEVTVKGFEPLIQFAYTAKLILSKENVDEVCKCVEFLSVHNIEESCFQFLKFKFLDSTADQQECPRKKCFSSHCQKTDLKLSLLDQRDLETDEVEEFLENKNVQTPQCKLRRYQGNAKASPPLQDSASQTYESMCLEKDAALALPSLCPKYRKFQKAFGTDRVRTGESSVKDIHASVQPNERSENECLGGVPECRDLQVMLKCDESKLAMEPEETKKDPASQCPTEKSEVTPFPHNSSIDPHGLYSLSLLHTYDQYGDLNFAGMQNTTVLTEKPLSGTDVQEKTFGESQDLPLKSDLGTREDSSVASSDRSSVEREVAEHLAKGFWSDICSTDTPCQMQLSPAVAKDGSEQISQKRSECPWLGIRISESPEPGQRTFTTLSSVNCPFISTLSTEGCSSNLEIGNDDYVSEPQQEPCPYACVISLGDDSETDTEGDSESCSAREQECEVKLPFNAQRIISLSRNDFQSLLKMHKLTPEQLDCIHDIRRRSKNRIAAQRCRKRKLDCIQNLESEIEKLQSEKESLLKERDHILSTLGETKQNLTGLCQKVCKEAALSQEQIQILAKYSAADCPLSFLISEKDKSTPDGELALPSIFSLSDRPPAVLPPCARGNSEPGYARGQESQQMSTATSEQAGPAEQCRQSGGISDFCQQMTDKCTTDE
UniProt P08047: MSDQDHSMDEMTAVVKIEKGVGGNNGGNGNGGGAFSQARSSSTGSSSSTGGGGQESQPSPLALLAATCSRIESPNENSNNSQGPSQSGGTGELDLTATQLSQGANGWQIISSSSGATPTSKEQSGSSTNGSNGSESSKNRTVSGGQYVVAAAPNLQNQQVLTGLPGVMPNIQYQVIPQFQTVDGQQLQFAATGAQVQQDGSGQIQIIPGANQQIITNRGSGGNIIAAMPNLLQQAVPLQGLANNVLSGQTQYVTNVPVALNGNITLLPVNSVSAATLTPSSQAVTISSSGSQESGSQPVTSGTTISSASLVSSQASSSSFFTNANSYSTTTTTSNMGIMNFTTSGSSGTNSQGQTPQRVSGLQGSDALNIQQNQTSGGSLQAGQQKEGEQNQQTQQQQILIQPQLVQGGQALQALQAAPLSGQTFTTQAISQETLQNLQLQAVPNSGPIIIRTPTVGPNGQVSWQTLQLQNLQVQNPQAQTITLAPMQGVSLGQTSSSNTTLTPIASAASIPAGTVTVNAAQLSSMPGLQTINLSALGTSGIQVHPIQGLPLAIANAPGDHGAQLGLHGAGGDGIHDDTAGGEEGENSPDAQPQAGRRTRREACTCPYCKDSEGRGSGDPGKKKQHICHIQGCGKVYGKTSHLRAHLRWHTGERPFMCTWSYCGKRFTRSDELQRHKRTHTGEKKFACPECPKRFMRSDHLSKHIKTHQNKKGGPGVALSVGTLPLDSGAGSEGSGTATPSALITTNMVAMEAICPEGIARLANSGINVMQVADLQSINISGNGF

Biological target: BTB and CNC homology 1 (BACH1), endogenous (human (endogenous in GBM cells)) (UniProt O14867)
Test: co-IP; endogenous proteins; lysates from GBM cells incubated with anti-IgG, anti-p53, anti-SP1 or anti-BACH1 antibody overnight at 4 °C, protein A/G beads; Western blot with anti-p53, anti-SP1 and anti-BACH1

binding: no binding
Substance: SP1 (endogenous) (from UniProt P08047 1-785)
